PubChem BioAssay AID1259424 | University of Nebraska Medical Center, 2018

Screen: 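Rank knockdowns across the genome by resemblance to the KSR1 depletion profile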 (primary screen)
Cells: human HCT116 colon cancer cells
Knock-down reagent: siRNA pool against human genes, 50 nM
Detection: 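Six signature mRNAs by branched-DNA multiplex assay, scaled to two housekeeping genes and non-targeting median, log2; matched to mean KSR1 knockdown profile by Pearson correlation and euclidean distance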
Reading the numbers: mean correlation with KSR1 profile and KSR1 correlation: higher = expression change more like KSR1 knockdown; mean distance from KSR1 profile: higher = expression change less like KSR1 knockdown
In all, the deposit lists about 14,000 reagents; this is a random part of them. 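Higher correlation or smaller distance means closer resemblance to KSR1 loss; control wells, including KSR1 knockdowns, recur on many plates.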 Some reagents were tested in more than one well and are listed for each. The record does not give: the time to read-out.

target gene,mean correlation with KSR1 profile,mean distance from KSR1 profile,"KSR1 correlation, replicate 1","KSR1 correlation, replicate 2","KSR1 correlation, replicate 3"
BACE2 (beta-secretase 2),0.103,1.8,0.414,-0.249,0.219
STAT5B (signal transducer and activator of transcription 5B),-0.503,2.27,-0.337,-0.342,-0.658
THRA (thyroid hormone receptor alpha),0.0502,2.07,0.137,-0.129,0.122
MRO (maestro),0.366,2.47,0.295,0.288,0.399
PRDX1 (peroxiredoxin 1),0.17,1.27,0.305,-0.19,0.244
IRF2 (interferon regulatory factor 2),0.255,5.65,0.215,0.203,0.378
TAF1 (TATA-box binding protein associated factor 1),0.372,1.6,0.553,0.303,0.177
TSSK2 (testis specific serine kinase 2),-0.528,3.32,-0.123,-0.689,-0.578
RAPGEF1 (Rap guanine nucleotide exchange factor 1),0.629,1.27,0.286,0.625,0.787
LOXL3 (lysyl oxidase like 3),-0.389,2.37,-0.405,-0.417,-0.368
BHMT (betaine--homocysteine S-methyltransferase),0.462,1.31,0.148,0.189,0.749
ISG20 (interferon stimulated exonuclease gene 20),0.531,1.92,0.534,0.51,0.493
CATSPER1 (cation channel sperm associated 1),-0.115,1.42,-0.114,-0.375,-0.229
"HLA-DQB1 (major histocompatibility complex, class II, DQ beta 1)",-0.512,4.43,-0.524,-0.437,-0.649

Targets listed so far whose gene name starts with B or b:
target gene,mean correlation with KSR1 profile,mean distance from KSR1 profile,"KSR1 correlation, replicate 1","KSR1 correlation, replicate 2","KSR1 correlation, replicate 3"
BACE2 (beta-secretase 2),0.103,1.8,0.414,-0.249,0.219
BHMT (betaine--homocysteine S-methyltransferase),0.462,1.31,0.148,0.189,0.749

Next records follow:
target gene,mean correlation with KSR1 profile,mean distance from KSR1 profile,"KSR1 correlation, replicate 1","KSR1 correlation, replicate 2","KSR1 correlation, replicate 3"
MTG2 (mitochondrial ribosome associated GTPase 2),-0.187,1.64,0.0603,-0.463,-0.229
LUZP4 (leucine zipper protein 4),-0.555,4.07,-0.564,-0.498,-0.437
"NPRL2 (NPR2 like, GATOR1 complex subunit)",-0.311,2.18,-0.382,-0.494,-0.409
BOK (BCL2 family apoptosis regulator BOK),0.098,1.51,0.168,-0.134,0.138
EBI3 (Epstein-Barr virus induced 3),-0.547,2.01,-0.396,-0.552,-0.734
TMEM107 (transmembrane protein 107),0.337,2.84,0.189,0.407,0.264
APMAP (adipocyte plasma membrane associated protein),0.655,1.6,0.595,0.653,0.627
DBNL (drebrin like),0.284,2.15,0.255,0.336,0.404
DBNL (drebrin like),0.0815,2.34,0.322,-0.273,0.435
AKAP1 (A-kinase anchoring protein 1),0.727,2.52,0.888,0.677,-0.0906
VCPKMT (valosin containing protein lysine methyltransferase),0.486,1.66,0.511,0.573,0.471
GRIA4 (glutamate ionotropic receptor AMPA type subunit 4),0.0387,1.2,0.0769,0.00199,-0.0433
AMELY (amelogenin Y-linked),-0.317,1.43,-0.201,-0.747,-0.191
P2RY13 (purinergic receptor P2Y13),0.584,1.98,0.516,0.626,0.604
KDM7A (lysine demethylase 7A),0.548,1.82,0.251,0.532,0.632
SLC44A2,-0.488,3.73,-0.548,-0.179,-0.272
SOX18 (SRY-box transcription factor 18),0.475,2.21,0.374,0.773,0.541
DNAJB12 (DnaJ heat shock protein family (Hsp40) member B12),-0.585,1.37,-0.51,-0.332,-0.429
GABARAP (GABA type A receptor-associated protein),0.791,1.78,0.842,0.597,0.77
FOXE1 (forkhead box E1),0.305,2.68,0.221,0.0864,0.337
FOXE1 (forkhead box E1),-0.167,2.55,-0.012,-0.183,-0.132
